For 114 sequences, binding signal results are on record in article PMC7862700.

By UniProt entry, the sequences of proteins in these tests, tags left out. Where a name states a change or a piece, a line headed by the entry shows the natural chain unless it says otherwise.
UniProt O43186: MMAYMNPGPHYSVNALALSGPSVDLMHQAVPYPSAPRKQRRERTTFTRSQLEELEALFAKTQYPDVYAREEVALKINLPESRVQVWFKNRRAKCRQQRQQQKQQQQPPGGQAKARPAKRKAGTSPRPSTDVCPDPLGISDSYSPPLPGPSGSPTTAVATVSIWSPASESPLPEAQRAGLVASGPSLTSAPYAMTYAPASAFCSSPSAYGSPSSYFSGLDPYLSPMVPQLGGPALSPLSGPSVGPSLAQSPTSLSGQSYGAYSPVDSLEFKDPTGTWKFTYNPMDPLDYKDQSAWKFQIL

Only a part is listed here, and it is no random draw. At the low end of the ranking the order means little.

The target of one assay is CRX (UniProt O43186). The assay is described as follows: DAPPL (digital affinity profiling via proximity ligation, sequencing). Conditions: 10 mM Tris-HCl pH 7.5, 50 mM NaCl, 1 mM DTT, 4% glycerol, room temperature, 30 min; GST-TFs on glutathione beads, 16-mer random dsDNA library, 0.1% …; high values mean tight binding; double strand, one strand shown; scale: fold enrichment (6-mer frequency, TF over GST control).

In the next assay the target is T1, ELF5 (UniProt Q9UKW6-2).
T1 sequence: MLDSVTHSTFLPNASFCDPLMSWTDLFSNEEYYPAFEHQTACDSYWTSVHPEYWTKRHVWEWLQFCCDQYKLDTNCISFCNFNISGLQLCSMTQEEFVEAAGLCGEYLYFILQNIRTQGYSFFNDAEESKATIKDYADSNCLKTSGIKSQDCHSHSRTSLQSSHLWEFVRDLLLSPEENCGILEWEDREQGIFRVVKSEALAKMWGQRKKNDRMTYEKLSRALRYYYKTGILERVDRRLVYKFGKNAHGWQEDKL
The description is as above. The following applies: 10 mM Tris-HCl pH 7.5, 50 mM NaCl, 1 mM DTT, 4% glycerol, room temperature, 30 min; GST-TFs on glutathione beads, 16-mer random dsDNA library, 0.1% …; high values mean tight binding; double strand, one strand shown; scale: fold enrichment (6-mer frequency, TF over GST control).

In the case of GTACTA, the binding signal with CRX was found to be 1.12; in the assay with ELF5, 1.13.

As to TAGGCA, the binding signal with CRX was 1.08; in the assay with ELF5 it was 0.928.

Regarding CCGGGT, the binding signal with CRX was determined as 0.566; in the assay with ELF5, 1.55.

With GATAGC, the results for the binding signal in the assay with CRX and with ELF5 were 0.902 and 0.993, respectively.

For the sequence CAAAGC, the binding signal was 1.3 with CRX and 1.01 with ELF5.

For GTACGC, the binding signal with CRX stood at 0.803; in the assay with ELF5, 1.06.

Take GCGCCC: the binding signal with CRX was 0.794; in the assay with ELF5 it was 0.977.

As for AATCCT, the binding signal with CRX is 3.32; in the assay with ELF5, 1.61.

For the sequence TAGGAA, the binding signal is 0.998 with CRX and 1.29 with ELF5.

Turning to GGTTAC, the binding signal with CRX was found to be 0.716; with ELF5 it was 0.944.

For AGCAAC, the binding signal is 0.838 with CRX and 1.07 with ELF5.

On to GTTCTC, for which the binding signal in the assay with CRX came to 1.28; with ELF5, 1.25.

Take TAACAG: the binding signal with CRX came out at 1.3; with ELF5 it was 0.985.

With TGCGCA, the binding signal with CRX was determined as 0.958; with ELF5 it was 1.06.

Turning to GCTCCG, the binding signal with CRX was determined as 1.07; in the assay with ELF5 it was 1.25.

In the case of ACTCAG, the values for the binding signal in the assay with CRX and with ELF5 were 0.914 and 0.998, respectively.

For the sequence TCACCG, the binding signal in the assay with CRX stood at 0.838; in the assay with ELF5, 1.01.

As for CACGAC, the binding signal is 0.875 with CRX and 1.24 with ELF5.

For the sequence GGACAT, the binding signal in the assay with CRX worked out at 0.739; with ELF5, 1.24.

In the case of CTCCAC, the binding signal with CRX was found to be 1.17; with ELF5, 1.35.

With CGGTTA, the results for the binding signal with CRX and with ELF5 were 0.88 and 1.07, respectively.

Consider ATGGGC, for which the binding signal turned out to be 0.994 with CRX and 1.26 in the assay with ELF5.

On to GCCCCG, for which the binding signal in the assay with CRX worked out at 0.813; in the assay with ELF5 it was 0.974.

On to ACGCCG, for which the binding signal with CRX was determined as 0.83; with ELF5, 0.987.

Turning to GGATGC, the values for the binding signal with CRX and in the assay with ELF5 were 0.65 and 1.25, respectively.

Take AGTGTT: the binding signal with CRX stood at 0.968; with ELF5 it was 1.3.

For the sequence CGTCTG, the binding signal in the assay with CRX was 0.872; with ELF5, 0.933.

ACAGCA: the binding signal is 0.772 with CRX and 0.978 with ELF5.

Take ACAAAA: the binding signal with CRX worked out at 1.05; in the assay with ELF5 it was 1.21.

For the sequence CTTGGC, the binding signal in the assay with CRX stood at 1.03; with ELF5 it was 1.12.

As for GCTGAC, the figures for the binding signal with CRX and with ELF5 were 0.883 and 1.05, respectively.

Turning to GGCGTT, the binding signal with CRX turned out to be 0.801; with ELF5, 0.921.

As to AAACTT, the binding signal in the assay with CRX came to 1.21; in the assay with ELF5, 1.43.

Regarding GCACCT, the binding signal with CRX came out at 0.842; with ELF5, 0.978.

For CCGGTT, the binding signal with CRX came to 0.863; in the assay with ELF5 it was 2.37.

As for GGCTTA, the binding signal with CRX is 3.34; with ELF5, 0.999.

Regarding TGCCGA, the binding signal with CRX worked out at 0.952; with ELF5, 0.994.

As to CAATGG, the binding signal with CRX was determined as 0.794; in the assay with ELF5 it was 0.964.

For the sequence CGAATG, the results for the binding signal with CRX and in the assay with ELF5 were 1 and 0.998, respectively.

For TTATAA, the binding signal in the assay with CRX came to 2.9; with ELF5, 1.19.

On to GCCCCA, for which the results for the binding signal in the assay with CRX and in the assay with ELF5 were 0.866 and 0.916, respectively.

Take GGTCAC: the binding signal was determined as 0.631 in the assay with CRX and 0.999 with ELF5.

With TTGCCA, the binding signal stood at 1.06 with CRX and 1.04 with ELF5.

As for GTGCTA, the values for the binding signal in the assay with CRX and with ELF5 were 0.997 and 0.973, respectively.

CACCGC: the results for the binding signal with CRX and with ELF5 were 0.795 and 0.914, respectively.

As for TGACCC, the values for the binding signal with CRX and with ELF5 were 1.13 and 1.4, respectively.

Take CGTCGC: the binding signal stood at 0.857 with CRX and 1.19 with ELF5.

As for ACTGAA, the figures for the binding signal with CRX and in the assay with ELF5 were 1.04 and 1.11, respectively.

In the case of CGATCA, the results for the binding signal with CRX and in the assay with ELF5 were 1.16 and 0.959, respectively.

Consider TGCGGA, for which the figures for the binding signal with CRX and in the assay with ELF5 were 0.815 and 1.46, respectively.

For the sequence TACTGT, the values for the binding signal with CRX and with ELF5 were 1.11 and 1.14, respectively.

In the case of TGACTG, the binding signal is 0.799 in the assay with CRX and 0.95 with ELF5.

Turning to GCACTG, the binding signal with CRX turned out to be 0.765; with ELF5, 0.981.

Regarding GTGGCA, the binding signal with CRX turned out to be 0.745; in the assay with ELF5, 0.882.

With GCCCTC, the binding signal with CRX is 0.964; with ELF5 it was 1.1.

Take ATAGTT: the binding signal with CRX was found to be 1.1; with ELF5 it was 1.12.

Turning to GCAGCT, the binding signal amounted to 1 in the assay with CRX and 0.909 with ELF5.

For ATAGGC, the binding signal with CRX stood at 1.14; in the assay with ELF5, 0.971.

For the sequence CCGACA, the binding signal with CRX was 0.918; in the assay with ELF5, 1.25.

With ATGCCG, the binding signal with CRX is 0.9; in the assay with ELF5, 1.13.

As to TGGGAC, the binding signal in the assay with CRX came to 0.695; in the assay with ELF5 it was 0.858.

For the sequence GCCCAA, the binding signal amounted to 0.983 with CRX and 0.986 with ELF5.

Regarding TTAATC, the binding signal was 6.11 in the assay with CRX and 1.18 with ELF5.

Take TGCCTT: the values for the binding signal with CRX and in the assay with ELF5 were 1.33 and 1.39, respectively.

For the sequence TTTCCG, the binding signal came out at 1.39 in the assay with CRX and 5.34 in the assay with ELF5.

Consider ACAGGA, for which the binding signal with CRX is 0.653; with ELF5, 1.28.

As for CATAAA, the binding signal with CRX turned out to be 1.11; in the assay with ELF5 it was 0.967.

CGTAAC: the binding signal stood at 0.901 in the assay with CRX and 1.12 with ELF5.

On to GTAACC, for which the results for the binding signal in the assay with CRX and with ELF5 were 0.808 and 1.07, respectively.

As for CCGGTG, the binding signal in the assay with CRX was determined as 0.553; in the assay with ELF5, 0.934.

As for CAAGTT, the binding signal is 0.872 in the assay with CRX and 1.03 with ELF5.

On to AACCGC, for which the figures for the binding signal with CRX and in the assay with ELF5 were 1.02 and 1, respectively.

As for GGTAAC, the results for the binding signal with CRX and with ELF5 were 0.716 and 1.02, respectively.

With GTACAC, the results for the binding signal with CRX and with ELF5 were 0.798 and 1.2, respectively.

AGTATG: the binding signal in the assay with CRX is 0.782; in the assay with ELF5, 1.06.

For the sequence AGCTCA, the binding signal with CRX was 1.45; in the assay with ELF5, 0.988.

Regarding GGAAGT, the results for the binding signal with CRX and with ELF5 were 0.493 and 3.88, respectively.

As to GTCCCC, the binding signal with CRX came to 0.862; with ELF5, 1.13.

On to CGCCAC, for which the binding signal with CRX worked out at 0.757; with ELF5, 1.05.

In the case of GCAGCC, the binding signal turned out to be 0.726 in the assay with CRX and 0.852 with ELF5.

As for CGTTTA, the binding signal with CRX turned out to be 1.19; in the assay with ELF5 it was 1.07.

Regarding TGCCAT, the binding signal with CRX worked out at 0.963; with ELF5, 1.08.

AATACC: the binding signal in the assay with CRX came out at 1.44; in the assay with ELF5 it was 1.17.

Turning to ACACCG, the binding signal with CRX amounted to 0.726; in the assay with ELF5 it was 0.946.

As to CACGCA, the binding signal came to 0.759 in the assay with CRX and 0.937 in the assay with ELF5.

In the case of AAATCG, the figures for the binding signal with CRX and with ELF5 were 1.26 and 0.999, respectively.

ACGATA: the values for the binding signal with CRX and with ELF5 were 1.26 and 1.09, respectively.

For the sequence ACAATT, the binding signal turned out to be 1.13 with CRX and 1.32 with ELF5.

Regarding TGGGCA, the values for the binding signal with CRX and with ELF5 were 0.753 and 0.905, respectively.

As to TTCTAT, the binding signal with CRX was 1.67; with ELF5 it was 1.3.

Take CCACAG: the binding signal was determined as 0.754 in the assay with CRX and 0.878 in the assay with ELF5.

As for GTGCAT, the binding signal with CRX was 0.829; in the assay with ELF5, 1.02.

With GCTGCA, the binding signal in the assay with CRX worked out at 0.772; with ELF5, 0.904.

For GCGACA, the binding signal with CRX is 0.724; in the assay with ELF5, 0.919.

For TAATTA, the binding signal with CRX was determined as 2.74; in the assay with ELF5, 1.2.

As to ATTGGC, the binding signal with CRX was determined as 1.07; in the assay with ELF5, 1.08.

Regarding ATGTGC, the binding signal with CRX was 0.897; with ELF5 it was 1.09.

As to CATCAA, the binding signal came out at 0.922 with CRX and 0.945 in the assay with ELF5.

Take CCACTG: the binding signal with CRX stood at 0.858; in the assay with ELF5, 1.09.

For the sequence GAAATT, the binding signal was 1.08 with CRX and 1.51 in the assay with ELF5.

CGGCCT: the results for the binding signal with CRX and with ELF5 were 0.932 and 0.977, respectively.

Turning to ACCTTA, the binding signal with CRX stood at 1.43; with ELF5, 1.26.

Take AGCACA: the figures for the binding signal with CRX and with ELF5 were 0.883 and 1.05, respectively.

In the case of AGCGCC, the binding signal worked out at 0.881 with CRX and 0.982 with ELF5.

Turning to ACACTC, the binding signal is 0.882 in the assay with CRX and 1.05 in the assay with ELF5.

As for TCTGGT, the figures for the binding signal in the assay with CRX and with ELF5 were 1.33 and 1.26, respectively.

Turning to GTACCC, the binding signal was 0.669 in the assay with CRX and 1.01 with ELF5.

For TGCCCC, the results for the binding signal in the assay with CRX and in the assay with ELF5 were 0.933 and 1.18, respectively.

Turning to GCCCAC, the binding signal stood at 0.858 with CRX and 0.992 with ELF5.

Consider CGGCAT, for which the binding signal with CRX turned out to be 0.892; with ELF5 it was 1.07.

As to AAGTTA, the binding signal with CRX worked out at 1.26; with ELF5, 1.21.

For the sequence AGCCAC, the figures for the binding signal with CRX and with ELF5 were 0.875 and 0.907, respectively.

Take CGCTGG: the binding signal with CRX is 0.825; with ELF5, 0.965.

For CTACAG, the binding signal is 0.912 with CRX and 1.08 with ELF5.
